Results on 1 substance are retold here after PMC2773007.

Sequences of proteins named here, by UniProt entry; tags and fusion partners are left off.
UniProt P62993: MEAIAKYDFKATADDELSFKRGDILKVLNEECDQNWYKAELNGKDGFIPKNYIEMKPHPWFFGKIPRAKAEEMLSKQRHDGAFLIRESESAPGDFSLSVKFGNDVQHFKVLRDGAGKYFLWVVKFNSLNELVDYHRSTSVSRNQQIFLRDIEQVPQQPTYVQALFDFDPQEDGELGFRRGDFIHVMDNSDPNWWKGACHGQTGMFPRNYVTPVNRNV

The target of the test is T1, Dvl2 PRR1 mutant (Δ111–122), FLAG-tagged (human) (UniProt O14641).
T1 sequence: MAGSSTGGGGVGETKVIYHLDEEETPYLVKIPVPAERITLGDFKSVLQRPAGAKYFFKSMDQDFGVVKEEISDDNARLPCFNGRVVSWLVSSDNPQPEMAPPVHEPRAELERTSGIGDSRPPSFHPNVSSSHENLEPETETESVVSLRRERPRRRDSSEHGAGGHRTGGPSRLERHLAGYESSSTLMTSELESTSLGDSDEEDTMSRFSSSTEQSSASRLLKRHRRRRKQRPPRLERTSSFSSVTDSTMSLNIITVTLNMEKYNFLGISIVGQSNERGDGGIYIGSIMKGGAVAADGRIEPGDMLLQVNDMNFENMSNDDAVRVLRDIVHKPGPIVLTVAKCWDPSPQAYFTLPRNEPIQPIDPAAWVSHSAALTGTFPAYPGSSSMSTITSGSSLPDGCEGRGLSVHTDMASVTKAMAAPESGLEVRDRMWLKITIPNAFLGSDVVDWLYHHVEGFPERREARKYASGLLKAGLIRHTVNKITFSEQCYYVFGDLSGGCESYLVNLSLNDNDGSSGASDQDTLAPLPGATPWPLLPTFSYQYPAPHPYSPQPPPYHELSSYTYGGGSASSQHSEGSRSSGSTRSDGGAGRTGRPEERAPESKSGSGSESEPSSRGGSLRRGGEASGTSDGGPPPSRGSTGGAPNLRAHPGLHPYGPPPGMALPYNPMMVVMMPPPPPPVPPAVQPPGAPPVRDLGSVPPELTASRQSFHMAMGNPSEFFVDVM
In words: co-IP; FLAG-Dvl2 (WT or PRR mutant) and HA-Grb2 co-expressed in HEK293; RIPA lysate; anti-FLAG immunoprecipitation overnight at 4°C, protein-G sepharose 2 hrs at RT; blot with anti-HA.

No constants are given. Whether binding was seen depends on the method and setting. Binding seen in cells or lysates may run through a third protein. Some entries that bind do so weakly or less than the wild type. Where a sequence is shown, tags or fusion partners need not be part of it.

With “HA-tagged Grb2 (human growth factor receptor-bound-2) (from UniProt P62993 1-217)”, the binding entry is given as “binds”.
